Laboratory results as given in PMC3931753.
No constants are given. Whether binding was seen depends on the method and setting. Binding seen in cells or lysates may run through a third protein. Some binding calls cover weakened binding; strength is not graded here.

The chains behind the UniProt entries cited, without tags or fusion partners.
UniProt P03372: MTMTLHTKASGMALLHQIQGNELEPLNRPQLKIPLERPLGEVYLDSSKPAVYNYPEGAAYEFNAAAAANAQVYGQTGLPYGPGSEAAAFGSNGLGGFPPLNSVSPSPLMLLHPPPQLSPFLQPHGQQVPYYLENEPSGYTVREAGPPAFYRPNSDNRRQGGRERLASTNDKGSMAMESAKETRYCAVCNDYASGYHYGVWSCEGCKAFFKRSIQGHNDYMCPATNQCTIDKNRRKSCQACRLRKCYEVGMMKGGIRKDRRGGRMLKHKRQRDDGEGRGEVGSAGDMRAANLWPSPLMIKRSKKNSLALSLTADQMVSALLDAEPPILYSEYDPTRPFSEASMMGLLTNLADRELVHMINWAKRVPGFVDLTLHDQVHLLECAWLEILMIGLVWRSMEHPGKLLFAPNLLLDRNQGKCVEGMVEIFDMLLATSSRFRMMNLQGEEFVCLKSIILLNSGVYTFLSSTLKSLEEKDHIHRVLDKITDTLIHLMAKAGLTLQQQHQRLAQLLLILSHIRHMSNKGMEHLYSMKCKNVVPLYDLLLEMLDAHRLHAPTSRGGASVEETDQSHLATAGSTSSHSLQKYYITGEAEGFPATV

Tests used:
Experiment in all cases: co-IP
[1] = biological target: E2 receptor alpha (ERα) (human (endogenous in MCF-7)) (UniProt P03372)
[2] = biological target: HTLV-1 Tax oncoprotein, wild type (HTLV-1) (UniProt P03409)
[3] = biological target: CBP co-activator (endogenous) (human (endogenous in MCF-7)) (UniProt Q92793)
[4] = biological target: p300 co-activator (endogenous) (human (endogenous in MCF-7)) (UniProt Q09472)

Substance | binding [1] | binding [2] | binding [3] | binding [4]
ectopic CBP (overexpressed from plasmid) (from UniProt Q92793 1-2442) | binds | binds | – | –
p300 co-activator (endogenous) (from UniProt Q09472 1-2414) | binds | binds | – | –
ectopic p300 (overexpressed from plasmid) (from UniProt Q09472 1-2414) | binds | binds | – | –
CBP co-activator (endogenous) (from UniProt Q92793 1-2442) | binds | binds | – | –
HTLV-1 Tax oncoprotein, wild type (from UniProt P03409 1-353) | – | – | binds | binds
E2 receptor alpha (ERα) (from UniProt P03372 1-595) | – | – | binds | binds
